B1: JUP (protein, UniProt P14923 1-745)
chain: MEVMNLMEQPIKVTEWQQTYTYDSGIHSGANTCVPSVSSKGIMEEDEACGRQYTLKKTTTYTQGVPPSQGDLEYQMSTTARAKRVREAMCPGVSGEDSSLLLATQVEGQATNLQRLAEPSQLLKSAIVHLINYQDDAELATRALPELTKLLNDEDPVVVTKAAMIVNQLSKKEASRRALMGSPQLVAAVVRTMQNTSDLDTARCTTSILHNLSHHREGLLAIFKSGGIPALVRMLSSPVESVLFYAITTLHNLLLYQEGAKMAVRLADGLQKMVPLLNKNNPKFLAITTDCLQLLAYGNQESKLIILANGGPQALVQIMRNYSYEKLLWTTSRVLKVLSVCPSNKPAIVEAGGMQALGKHLTSNSPRLVQNCLWTLRNLSDVATKQEGLESVLKILVNQLSVDDVNVLTCATGTLSNLTCNNSKNKTLVTQNSGVEALIHAILRAGDKDDITEPAVCALRHLTSRHPEAEMAQNSVRLNYGIPAIVKLLNQPNQWPLVKATIGLIRNLALCPANHAPLQEAAVIPRLVQLLVKAHQDAQRHVAAGTQQPYTDGVRMEEIVEGCTGALHILARDPMNRMEIFRLNTIPLFVQLLYSSVENIQRVAAGVLCELAQDKEAADAIDAEGASAPLMELLHSRNEGTATYAAAVLFRISEDKNPDYRKRVSVELTNSLFKHDPAAWEAAQSMIPINEPYGDDMDATYRPMYSSDVPLDPLEMHMDMDGDYPIDTYSDGLRPPYPTADHMLA
B2: SHCBP1 (endogenous, SNU-216) (protein, UniProt Q8NEM2 1-672)
chain: MADGSLTGGGLEAAAMAPERMGWAVEQELASLEKGLFQDEDSCSDCSYRDKPGSSLQSFMPEGKTFFPEIFQTNQLLFYERFRAYQDYILADCKASEVQEFTAEFLEKVLEPSGWRAVWHTNVFKVLVEITDVDFAALKAVVRLAEPYLCDSQVSTFTMECMKELLDLKEHRLPLQELWVVFDDSGVFDQTALAIEHVRFFYQNIWRSWDEEEEDEYDYFVRCVEPRLRLHYDILEDRVPSGLIVDYHNLLSQCEESYRKFLNLRSSLSNCNSDSEQENISMVEGLKLYSEMEQLKQKLKLIENPLLRYVFGYQKNSNIQAKGVRSSGQKITHVVSSTMMAGLLRSLLTDRLCQEPGEEEREIQFHSDPLSAINACFEGDTVIVCPGHYVVHGTFSIADSIELEGYGLPDDIVIEKRGKGDTFVDCTGADIKISGIKFVQHDAVEGILIVHRGKTTLENCVLQCETTGVTVRTSAEFLMKNSDLYGAKGAGIEIYPGSQCTLSDNGIHHCKEGILIKDFLDEHYDIPKISMVNNIIHNNEGYGVVLVKPTIFSDLQENAEDGTEENKALKIQTSGEPDVAERVDLEELIECATGKMELCARTDPSEQVEGNCEIVNELIAASTQKGQIKKKRLSELGITQADDNLMSQEMFVGIVGNQFKWNGKGSFGTFLF
B3: RASAL2 (protein, UniProt Q9UJF2 1-1139)
chain: MQTPEVPAERSPRRRSISGTSTSEKPNSMDTANTSPFKVPGFFSKRLKGSIKRTKSQSKLDRNTSFRLPSLRSTDDRSRGLPKLKESRSHESLLSPCSTVECLDLGRGEPVSVKPLHSSILGQDFCFEVTYLSGSKCFSCNSASERDKWMENLRRTVQPNKDNCRRAENVLRLWIIEAKDLAPKKKYFCELCLDDTLFARTTSKTKADNIFWGEHFEFFSLPPLHSITVHIYKDVEKKKKKDKNNYVGLVNIPTASVTGRQFVEKWYPVSTPTPNKGKTGGPSIRIKSRFQTITILPMEQYKEFAEFVTSNYTMLCSVLEPVISVRNKEELACALVHILQSTGRAKDFLTDLVMSEVDRCGEHDVLIFRENTIATKSIEEYLKLVGQQYLHDALGEFIKALYESDENCEVDPSKCSSSELIDHQSNLKMCCELAFCKIINSYCVFPRELKEVFASWKQQCLNRGKQDISERLISASLFLRFLCPAIMSPSLFNLMQEYPDDRTSRTLTLIAKVIQNLANFAKFGNKEEYMAFMNDFLEHEWGGMKRFLLEISNPDTISNTPGFDGYIDLGRELSVLHSLLWEVVSQLDKGENSFLQATVAKLGPLPRVLADITKSLTNPTPIQQQLRRFTEHNSSPNVSGSLSSGLQKIFEDPTDSDLHKLKSPSQDNTDSYFRGKTLLLVQQASSQSMTYSEKDERESSLPNGRSVSLMDLQDTHAAQVEHASVMLDVPIRLTGSQLSITQVASIKQLRETQSTPQSAPQVRRPLHPALNQPGGLQPLSFQNPVYHLNNPIPAMPKASIDSSLENLSTASSRSQSNSEDFKLSGPSNSSMEDFTKRSTQSEDFSRRHTVPDRHIPLALPRQNSTGQAQIRKVDQGGLGARAKAPPSLPHSASLRSTGSMSVVSAALVAEPVQNGSRSRQQSSSSRESPVPKVRAIQRQQTQQVQSPVDSATMSPVERTAAWVLNNGQYEEDVEETEQNLDEAKHAEKYEQEITKLKERLRVSSRRLEEYERRLLVQEQQMQKLLLEYKARLEDSEERLRRQQEEKDSQMKSIISRLMAVEEELKKDHAEMQAVIDAKQKIIDAQEKRIVSLDSANTRLMSALTQVKERYSMQVRNGISPTNPTKLSITENGEFKNSSC

By UniProt entry, the sequences of proteins in these tests, tags left out. Residues count along the entry.
UniProt P21860, residues 20-1342: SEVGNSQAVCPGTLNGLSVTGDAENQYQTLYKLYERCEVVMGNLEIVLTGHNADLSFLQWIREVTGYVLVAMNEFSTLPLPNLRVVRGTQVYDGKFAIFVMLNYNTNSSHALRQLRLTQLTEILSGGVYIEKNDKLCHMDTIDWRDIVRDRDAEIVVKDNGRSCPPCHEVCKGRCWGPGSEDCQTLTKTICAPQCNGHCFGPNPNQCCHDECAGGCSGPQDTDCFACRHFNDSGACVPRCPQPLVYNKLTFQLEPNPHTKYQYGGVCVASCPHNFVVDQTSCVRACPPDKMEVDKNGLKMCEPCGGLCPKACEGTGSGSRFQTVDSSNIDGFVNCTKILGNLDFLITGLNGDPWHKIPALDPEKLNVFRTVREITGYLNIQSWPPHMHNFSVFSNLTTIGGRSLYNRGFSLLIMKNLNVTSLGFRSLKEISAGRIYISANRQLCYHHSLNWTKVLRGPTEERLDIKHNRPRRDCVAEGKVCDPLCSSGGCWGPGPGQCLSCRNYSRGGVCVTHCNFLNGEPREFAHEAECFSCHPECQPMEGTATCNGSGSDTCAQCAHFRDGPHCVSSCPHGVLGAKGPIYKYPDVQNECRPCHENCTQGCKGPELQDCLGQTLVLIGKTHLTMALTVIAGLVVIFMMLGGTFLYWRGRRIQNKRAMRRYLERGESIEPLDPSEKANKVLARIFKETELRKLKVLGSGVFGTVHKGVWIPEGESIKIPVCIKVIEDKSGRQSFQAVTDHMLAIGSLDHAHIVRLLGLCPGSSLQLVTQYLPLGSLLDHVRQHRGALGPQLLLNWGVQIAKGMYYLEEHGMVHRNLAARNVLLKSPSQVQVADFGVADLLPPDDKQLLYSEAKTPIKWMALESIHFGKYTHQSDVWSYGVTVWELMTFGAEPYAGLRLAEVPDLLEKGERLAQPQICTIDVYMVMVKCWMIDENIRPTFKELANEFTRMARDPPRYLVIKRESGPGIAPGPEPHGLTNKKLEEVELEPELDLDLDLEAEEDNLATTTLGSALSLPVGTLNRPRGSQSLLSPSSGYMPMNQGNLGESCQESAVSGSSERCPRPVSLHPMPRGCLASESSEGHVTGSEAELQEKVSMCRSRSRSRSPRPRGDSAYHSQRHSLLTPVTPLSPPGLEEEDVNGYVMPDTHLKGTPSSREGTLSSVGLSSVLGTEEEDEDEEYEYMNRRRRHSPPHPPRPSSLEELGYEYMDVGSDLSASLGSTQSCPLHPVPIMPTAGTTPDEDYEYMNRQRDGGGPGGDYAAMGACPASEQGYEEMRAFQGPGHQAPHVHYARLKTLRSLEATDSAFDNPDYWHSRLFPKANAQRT
UniProt P29317, residues 24-976: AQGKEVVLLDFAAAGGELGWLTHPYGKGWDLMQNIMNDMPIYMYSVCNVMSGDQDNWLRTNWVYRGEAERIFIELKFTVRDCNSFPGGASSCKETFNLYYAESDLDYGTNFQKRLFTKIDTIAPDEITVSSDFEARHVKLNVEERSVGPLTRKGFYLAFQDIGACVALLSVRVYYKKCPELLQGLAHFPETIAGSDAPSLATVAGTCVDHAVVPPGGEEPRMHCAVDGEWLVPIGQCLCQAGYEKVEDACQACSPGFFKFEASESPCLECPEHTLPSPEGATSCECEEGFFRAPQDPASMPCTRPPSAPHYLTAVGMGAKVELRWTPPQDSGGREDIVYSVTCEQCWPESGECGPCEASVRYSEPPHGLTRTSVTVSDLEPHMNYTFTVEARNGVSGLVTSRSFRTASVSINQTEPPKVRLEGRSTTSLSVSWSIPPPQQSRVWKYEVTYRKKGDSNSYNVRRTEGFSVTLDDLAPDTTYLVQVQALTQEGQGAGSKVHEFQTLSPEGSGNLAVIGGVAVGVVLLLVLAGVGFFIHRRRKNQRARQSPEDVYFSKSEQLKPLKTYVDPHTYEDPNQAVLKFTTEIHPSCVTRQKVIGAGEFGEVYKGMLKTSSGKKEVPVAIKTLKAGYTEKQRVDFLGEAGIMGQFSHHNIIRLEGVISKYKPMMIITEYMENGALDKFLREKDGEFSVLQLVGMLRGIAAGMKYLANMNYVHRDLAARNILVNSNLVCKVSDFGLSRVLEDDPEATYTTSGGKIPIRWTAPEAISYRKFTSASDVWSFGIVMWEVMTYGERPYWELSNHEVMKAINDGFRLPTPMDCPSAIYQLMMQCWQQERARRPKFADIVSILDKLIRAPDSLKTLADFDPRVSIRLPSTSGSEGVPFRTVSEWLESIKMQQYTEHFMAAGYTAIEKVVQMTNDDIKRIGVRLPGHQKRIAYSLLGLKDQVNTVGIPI

These are yes or no findings as the source states them, for the method shown. In cells and extracts the contact can be indirect. A yes stands for co-enrichment or nearness to the bait. Other partners may have been found. Where a sequence is shown, tags or fusion partners need not be part of it.

In the test the target is T1, Flag-tagged Shc1 (UniProt P29353).
T1 sequence: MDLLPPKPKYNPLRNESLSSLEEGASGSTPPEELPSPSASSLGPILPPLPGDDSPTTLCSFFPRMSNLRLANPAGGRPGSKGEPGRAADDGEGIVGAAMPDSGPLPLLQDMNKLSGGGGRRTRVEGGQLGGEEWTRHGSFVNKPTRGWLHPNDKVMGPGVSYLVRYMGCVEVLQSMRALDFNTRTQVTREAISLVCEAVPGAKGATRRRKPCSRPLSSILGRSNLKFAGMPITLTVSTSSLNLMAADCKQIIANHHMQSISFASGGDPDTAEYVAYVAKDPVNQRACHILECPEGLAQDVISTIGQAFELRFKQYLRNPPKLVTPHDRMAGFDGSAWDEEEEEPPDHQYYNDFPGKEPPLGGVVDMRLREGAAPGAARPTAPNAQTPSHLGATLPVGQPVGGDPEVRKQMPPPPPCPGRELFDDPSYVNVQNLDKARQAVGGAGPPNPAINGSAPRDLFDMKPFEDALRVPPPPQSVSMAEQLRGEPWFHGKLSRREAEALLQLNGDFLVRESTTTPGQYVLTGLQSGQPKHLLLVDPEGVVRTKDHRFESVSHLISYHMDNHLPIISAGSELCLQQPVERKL
Put plainly: affinity purification with mass spectrometry; Flag-Shc1 immunoprecipitated on anti-Flag M2 agarose from SNU-216 stable cells following EGF stimulation; lysis buffer 50 mM Tris-HCl pH 7.4, 150 mM NaCl, 1 mM EDTA, 0.2% TritonX-100; LC-MS/MS.
As to “HER3 (from UniProt P21860 20-1342) (receptor)”, the binding result is listed as “binds”. For “Human epidermal growth factor receptor 2 (HER2) (from UniProt P04626 23-1255)” the value was “binds”; for “EPHA2 (from UniProt P29317 24-976) (receptor)”, “binds”; for B1, “binds”. For B2, the binding result is “binds”.

Consider B3, for which the binding entry was “binds”.
